The assay addresses CD4抗原 (UniProt P01730). The experiment in a line: flow cytometry on a mixture of K562-CD4 and K562 cells; 1 μg antibody; APC goat anti-mouse IgG secondary. (In general: Flow cytometry measures light scatter and fluorescence of single cells or particles in a stream.)

Consider 1 molecule from CN116063501A.

Results are given in words; binding and its absence hold for the method and conditions named. Some results given as binding are weak or reduced against the parent protein; the word gives no strength.

B1: 抗CD4-1抗体 (antibody, V domains shown)
VH: EVQLQQSGPELVKPGDSVKMSCKASGYTFTDYFMDWVKQSHGKSLEWIGYIYPNNGGTNNNQKFKGKATLTVDKSSSTAYMELHSLTSEDSAVYYCARRGYDEGFAYWGQGTLVTVSS
VL: DILLTQSPAILSVSPGERVSFSCRASQIIGTSILWYQQRTNGSPRLLIKYASESISGIPSRFSGSGSGTDFTLSINSVESEDIADYYCQQSNTWPFTFGGGTKLEMK
For the molecule B1, the binding entry is reported as “binds”.
